Experimental data published in the supplement of paper PMC10849652.
Some of the results follow.

Sequences of proteins named here, by UniProt entry; tags and fusion partners are left off. A change or cut given only in a name is not applied to a line headed by its entry.
UniProt Q9NVA4: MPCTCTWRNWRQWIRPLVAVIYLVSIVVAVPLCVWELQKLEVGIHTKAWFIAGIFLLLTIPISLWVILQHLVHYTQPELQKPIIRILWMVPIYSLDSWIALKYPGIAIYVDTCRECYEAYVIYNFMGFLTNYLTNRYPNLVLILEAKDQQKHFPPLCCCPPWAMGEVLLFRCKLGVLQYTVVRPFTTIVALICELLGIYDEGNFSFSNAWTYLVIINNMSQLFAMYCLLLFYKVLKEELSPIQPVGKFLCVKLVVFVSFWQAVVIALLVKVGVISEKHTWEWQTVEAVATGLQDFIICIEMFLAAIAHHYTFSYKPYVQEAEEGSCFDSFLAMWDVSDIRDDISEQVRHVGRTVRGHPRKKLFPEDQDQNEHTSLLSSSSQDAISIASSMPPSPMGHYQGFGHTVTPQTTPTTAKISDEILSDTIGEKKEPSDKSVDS
UniProt Q96AN5: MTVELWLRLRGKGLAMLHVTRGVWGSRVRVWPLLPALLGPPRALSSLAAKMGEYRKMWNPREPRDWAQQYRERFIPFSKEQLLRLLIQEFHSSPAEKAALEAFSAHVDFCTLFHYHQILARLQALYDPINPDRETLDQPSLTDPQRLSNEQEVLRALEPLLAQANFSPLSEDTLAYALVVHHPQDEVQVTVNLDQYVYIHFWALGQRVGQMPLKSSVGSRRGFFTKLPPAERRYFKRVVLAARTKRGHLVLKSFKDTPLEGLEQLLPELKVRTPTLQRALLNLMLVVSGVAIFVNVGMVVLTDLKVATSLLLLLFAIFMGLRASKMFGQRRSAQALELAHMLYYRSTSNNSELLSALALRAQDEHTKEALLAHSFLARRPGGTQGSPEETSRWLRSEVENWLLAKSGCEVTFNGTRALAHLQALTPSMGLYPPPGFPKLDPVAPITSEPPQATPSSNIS
UniProt Q86XT9, whole entry, looked up: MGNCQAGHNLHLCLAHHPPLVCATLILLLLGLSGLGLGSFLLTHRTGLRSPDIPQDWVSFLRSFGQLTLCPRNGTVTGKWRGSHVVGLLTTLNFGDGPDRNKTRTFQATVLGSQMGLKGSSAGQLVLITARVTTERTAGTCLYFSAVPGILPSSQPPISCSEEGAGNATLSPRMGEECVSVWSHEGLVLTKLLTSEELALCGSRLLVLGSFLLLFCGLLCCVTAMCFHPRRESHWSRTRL
UniProt P21580: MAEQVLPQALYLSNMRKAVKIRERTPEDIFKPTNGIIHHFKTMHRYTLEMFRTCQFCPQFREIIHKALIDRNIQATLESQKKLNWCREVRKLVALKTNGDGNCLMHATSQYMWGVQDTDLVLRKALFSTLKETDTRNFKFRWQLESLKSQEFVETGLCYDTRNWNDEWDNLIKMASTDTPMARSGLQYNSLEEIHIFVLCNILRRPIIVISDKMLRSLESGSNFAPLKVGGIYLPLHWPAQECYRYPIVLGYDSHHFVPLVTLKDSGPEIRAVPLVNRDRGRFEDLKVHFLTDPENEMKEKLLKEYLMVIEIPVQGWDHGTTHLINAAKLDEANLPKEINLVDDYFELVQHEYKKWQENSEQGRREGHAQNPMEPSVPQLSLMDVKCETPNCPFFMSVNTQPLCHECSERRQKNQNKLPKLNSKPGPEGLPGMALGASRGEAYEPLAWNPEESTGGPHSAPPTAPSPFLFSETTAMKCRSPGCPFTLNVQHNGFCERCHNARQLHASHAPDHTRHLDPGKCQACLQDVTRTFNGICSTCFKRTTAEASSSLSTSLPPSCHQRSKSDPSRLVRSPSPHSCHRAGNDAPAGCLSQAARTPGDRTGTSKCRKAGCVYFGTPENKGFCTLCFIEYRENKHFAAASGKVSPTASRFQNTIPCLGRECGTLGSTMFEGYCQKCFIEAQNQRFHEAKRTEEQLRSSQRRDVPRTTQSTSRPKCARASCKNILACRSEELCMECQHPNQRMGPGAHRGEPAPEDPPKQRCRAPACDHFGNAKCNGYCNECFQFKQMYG
UniProt O76062: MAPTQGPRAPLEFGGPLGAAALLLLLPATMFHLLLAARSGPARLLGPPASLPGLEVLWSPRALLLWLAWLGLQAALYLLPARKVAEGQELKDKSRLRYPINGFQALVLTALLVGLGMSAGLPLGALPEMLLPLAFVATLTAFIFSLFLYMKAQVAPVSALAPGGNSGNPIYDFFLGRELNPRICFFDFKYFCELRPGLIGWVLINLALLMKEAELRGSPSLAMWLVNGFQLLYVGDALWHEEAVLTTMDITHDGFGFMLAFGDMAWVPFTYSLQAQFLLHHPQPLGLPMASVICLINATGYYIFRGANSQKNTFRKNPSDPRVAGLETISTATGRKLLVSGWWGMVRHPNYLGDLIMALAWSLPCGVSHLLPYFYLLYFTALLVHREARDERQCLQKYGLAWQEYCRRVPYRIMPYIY
UniProt Q9BXS4: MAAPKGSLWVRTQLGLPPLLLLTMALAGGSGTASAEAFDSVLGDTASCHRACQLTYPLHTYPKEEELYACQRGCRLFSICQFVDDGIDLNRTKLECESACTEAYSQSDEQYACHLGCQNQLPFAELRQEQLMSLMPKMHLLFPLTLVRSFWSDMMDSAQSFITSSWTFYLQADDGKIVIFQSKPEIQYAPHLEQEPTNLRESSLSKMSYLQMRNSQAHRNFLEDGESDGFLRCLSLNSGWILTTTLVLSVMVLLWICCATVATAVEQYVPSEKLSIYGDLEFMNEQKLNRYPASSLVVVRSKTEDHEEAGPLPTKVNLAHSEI
UniProt Q9BVX2: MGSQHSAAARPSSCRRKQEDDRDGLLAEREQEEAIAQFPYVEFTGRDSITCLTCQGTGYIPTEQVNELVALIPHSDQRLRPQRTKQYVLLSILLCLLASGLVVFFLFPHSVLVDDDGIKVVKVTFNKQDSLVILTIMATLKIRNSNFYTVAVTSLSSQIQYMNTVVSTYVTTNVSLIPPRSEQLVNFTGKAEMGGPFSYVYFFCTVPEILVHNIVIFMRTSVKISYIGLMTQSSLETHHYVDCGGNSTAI
UniProt Q9BVK8: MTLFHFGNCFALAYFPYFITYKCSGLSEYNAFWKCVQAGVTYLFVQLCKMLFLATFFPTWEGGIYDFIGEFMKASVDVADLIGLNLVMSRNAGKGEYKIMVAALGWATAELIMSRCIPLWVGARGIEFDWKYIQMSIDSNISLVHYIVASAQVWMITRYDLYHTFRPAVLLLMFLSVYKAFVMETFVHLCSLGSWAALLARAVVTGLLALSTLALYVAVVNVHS
UniProt O95807: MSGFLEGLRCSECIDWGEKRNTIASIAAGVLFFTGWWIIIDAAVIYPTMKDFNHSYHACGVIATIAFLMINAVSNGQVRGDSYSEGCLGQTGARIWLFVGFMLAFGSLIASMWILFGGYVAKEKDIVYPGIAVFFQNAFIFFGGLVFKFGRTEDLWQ
UniProt Q9Y2Y6: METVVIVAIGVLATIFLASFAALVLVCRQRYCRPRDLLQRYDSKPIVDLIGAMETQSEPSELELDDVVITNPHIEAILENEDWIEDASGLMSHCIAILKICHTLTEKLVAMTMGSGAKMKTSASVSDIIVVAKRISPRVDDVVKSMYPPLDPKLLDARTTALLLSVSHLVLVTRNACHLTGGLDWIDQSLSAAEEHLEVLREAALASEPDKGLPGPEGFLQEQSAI
UniProt Q8NCS4: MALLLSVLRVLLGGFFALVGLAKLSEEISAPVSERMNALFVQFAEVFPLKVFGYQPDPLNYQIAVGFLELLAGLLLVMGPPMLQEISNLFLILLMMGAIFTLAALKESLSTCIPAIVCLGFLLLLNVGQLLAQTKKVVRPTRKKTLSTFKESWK
UniProt Q5SNT2: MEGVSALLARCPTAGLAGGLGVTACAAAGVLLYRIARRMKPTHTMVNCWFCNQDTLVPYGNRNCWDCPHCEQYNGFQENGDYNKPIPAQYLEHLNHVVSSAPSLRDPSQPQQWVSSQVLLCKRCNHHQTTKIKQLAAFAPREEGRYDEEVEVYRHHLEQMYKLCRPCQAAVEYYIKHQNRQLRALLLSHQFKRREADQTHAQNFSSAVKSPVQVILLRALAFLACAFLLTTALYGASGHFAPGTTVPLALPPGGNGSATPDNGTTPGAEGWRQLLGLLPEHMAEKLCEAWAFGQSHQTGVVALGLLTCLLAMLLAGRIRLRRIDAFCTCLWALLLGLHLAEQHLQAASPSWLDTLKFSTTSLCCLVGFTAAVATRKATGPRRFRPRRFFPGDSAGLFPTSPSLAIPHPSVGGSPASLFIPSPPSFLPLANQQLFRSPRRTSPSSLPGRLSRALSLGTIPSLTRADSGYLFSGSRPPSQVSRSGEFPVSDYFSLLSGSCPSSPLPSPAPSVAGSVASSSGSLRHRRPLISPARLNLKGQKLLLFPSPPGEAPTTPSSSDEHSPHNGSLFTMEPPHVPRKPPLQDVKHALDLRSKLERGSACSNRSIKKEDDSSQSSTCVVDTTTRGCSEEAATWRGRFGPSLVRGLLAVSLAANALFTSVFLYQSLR
UniProt O75069: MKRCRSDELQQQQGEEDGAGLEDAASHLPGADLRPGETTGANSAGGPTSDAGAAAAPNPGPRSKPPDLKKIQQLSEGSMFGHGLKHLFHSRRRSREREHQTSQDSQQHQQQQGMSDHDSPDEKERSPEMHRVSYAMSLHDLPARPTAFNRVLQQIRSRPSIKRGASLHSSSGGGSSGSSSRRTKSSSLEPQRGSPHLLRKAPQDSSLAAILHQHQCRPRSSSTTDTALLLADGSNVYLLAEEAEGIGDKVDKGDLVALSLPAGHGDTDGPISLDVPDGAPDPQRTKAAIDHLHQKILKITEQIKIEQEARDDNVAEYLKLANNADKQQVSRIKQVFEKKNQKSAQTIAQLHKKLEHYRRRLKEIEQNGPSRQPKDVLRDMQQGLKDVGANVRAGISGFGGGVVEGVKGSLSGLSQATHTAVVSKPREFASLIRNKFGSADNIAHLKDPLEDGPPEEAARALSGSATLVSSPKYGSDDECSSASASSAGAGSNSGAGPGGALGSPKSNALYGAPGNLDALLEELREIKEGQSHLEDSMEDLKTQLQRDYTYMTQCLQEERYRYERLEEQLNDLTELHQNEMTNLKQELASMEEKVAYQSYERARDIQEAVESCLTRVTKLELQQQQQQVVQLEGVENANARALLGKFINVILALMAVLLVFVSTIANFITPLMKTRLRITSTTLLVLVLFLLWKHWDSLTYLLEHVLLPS
UniProt Q5T292: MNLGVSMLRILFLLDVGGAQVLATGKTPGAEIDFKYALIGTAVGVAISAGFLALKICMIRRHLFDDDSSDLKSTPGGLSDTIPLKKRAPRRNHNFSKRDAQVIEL
UniProt O75204: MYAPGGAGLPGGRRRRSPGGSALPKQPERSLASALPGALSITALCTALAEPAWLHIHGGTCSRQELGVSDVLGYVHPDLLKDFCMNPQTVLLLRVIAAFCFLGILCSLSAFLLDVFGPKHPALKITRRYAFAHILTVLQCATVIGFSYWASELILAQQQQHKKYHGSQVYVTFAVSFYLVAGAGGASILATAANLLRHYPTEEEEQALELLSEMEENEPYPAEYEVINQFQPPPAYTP
UniProt Q03169: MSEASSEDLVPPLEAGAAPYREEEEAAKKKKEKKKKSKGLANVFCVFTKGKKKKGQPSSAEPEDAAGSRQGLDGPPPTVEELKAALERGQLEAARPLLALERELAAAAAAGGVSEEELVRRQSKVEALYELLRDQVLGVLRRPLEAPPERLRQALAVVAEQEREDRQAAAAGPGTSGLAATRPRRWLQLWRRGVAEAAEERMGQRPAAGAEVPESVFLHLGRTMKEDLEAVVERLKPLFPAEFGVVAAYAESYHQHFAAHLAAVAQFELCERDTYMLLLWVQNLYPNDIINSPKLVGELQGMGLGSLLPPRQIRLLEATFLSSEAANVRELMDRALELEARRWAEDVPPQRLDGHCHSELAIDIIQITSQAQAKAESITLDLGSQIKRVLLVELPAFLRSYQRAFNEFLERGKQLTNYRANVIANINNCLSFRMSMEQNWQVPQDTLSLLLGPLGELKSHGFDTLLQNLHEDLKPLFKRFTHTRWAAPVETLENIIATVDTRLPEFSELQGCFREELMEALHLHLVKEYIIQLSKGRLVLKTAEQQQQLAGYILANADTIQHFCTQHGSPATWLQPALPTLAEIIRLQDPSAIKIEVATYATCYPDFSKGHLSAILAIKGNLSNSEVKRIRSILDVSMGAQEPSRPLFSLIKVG
UniProt A0PK00: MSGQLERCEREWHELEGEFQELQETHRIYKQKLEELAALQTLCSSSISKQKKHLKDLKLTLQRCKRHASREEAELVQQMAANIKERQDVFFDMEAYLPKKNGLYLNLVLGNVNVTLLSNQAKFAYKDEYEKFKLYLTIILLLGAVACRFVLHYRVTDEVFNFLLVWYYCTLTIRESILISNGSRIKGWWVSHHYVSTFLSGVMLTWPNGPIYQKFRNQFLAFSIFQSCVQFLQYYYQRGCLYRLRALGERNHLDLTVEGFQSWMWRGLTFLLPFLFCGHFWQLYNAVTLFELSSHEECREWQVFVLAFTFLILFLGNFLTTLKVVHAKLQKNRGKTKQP
UniProt Q96B96: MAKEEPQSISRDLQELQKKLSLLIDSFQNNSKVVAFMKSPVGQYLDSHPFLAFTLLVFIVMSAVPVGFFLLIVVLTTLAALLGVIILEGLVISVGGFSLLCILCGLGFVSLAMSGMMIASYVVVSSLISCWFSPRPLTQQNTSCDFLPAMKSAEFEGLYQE

The targets below were run with CC[C@@H]1C(=O)N(C)c2cnc(Nc3ccc(C(=O)NC4CCN(C)CC4)cc3OC)nc2N1C1CCCC1 (assay: log2 fold change, soluble protein after heating vs DMSO (PISA); higher = thermal stabilisation; K562 cells, 10 uM, 30 min; active = over 0.2 and 3.5 SD of the protein, either way, in both replicates (recomputed)).
In short: (§1)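 Soluble protein was defined as the supernatant after 21,000xg for 90 min. It came from K562 cells at 2×10^6 cells/mL given 10 μM compound for 30 min, heated in aliquots for 3 min across 48°C-58°C, pooled, and extracted in PBS with 0.5% NP-40 at 4°C, and was quantified by TMTpro 16plex LC-MS/MS with equalised channel sums. Thermal stability against control samples, from duplicates, is reported as log2 fold change.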
In the case of TMEM184C (UniProt Q9NVA4), the log2 fold change is reported as inactive: -0.03.
In the case of TMEM237 isoform 3 (UniProt Q96Q45), the log2 fold change is reported as inactive: 0.144.
With TMEM143 (UniProt Q96AN5) the log2 fold change was inactive: -0.05.
With TMCC3 (UniProt Q9ULS5) the log2 fold change was inactive: 0.119.
In the case of TLR9 isoform 4 (UniProt Q9NR96), the log2 fold change is reported as inactive: -0.055.

What follows are targets tested with CC[C@@H]1C(=O)N(C)c2cnc(Nc3ccc(C(=O)N[C@H]4CC[C@H](N5CCN(CC6CC6)CC5)CC4)cc3OC)nc2N1C(C)C [volasertib] in the same assay as above.
In short: as §1
In the case of TMEM219 (UniProt Q86XT9), the log2 fold change is reported as inactive: -0.111.
TNFAIP3 (UniProt P21580) was tested, and the log2 fold change was inactive: -0.045.
In the case of TM7SF2 (UniProt O76062), the log2 fold change is reported as active: 0.907.
With TMEM184B (UniProt Q9Y519) the log2 fold change was inactive: 0.017.
For TNFRSF1A (UniProt P19438), the log2 fold change was inactive: 0.103.
In the case of TMEM129, the log2 fold change is reported as inactive: -0.137.
In the case of TM6SF1 (UniProt Q9BZW5), the log2 fold change is reported as inactive: 0.052.
TMEM59 (UniProt Q9BXS4) was tested, and the log2 fold change was inactive: -0.107.
With TMEM106C (UniProt Q9BVX2) the log2 fold change was inactive: -0.05.
TMEM147 (UniProt Q9BVK8) was tested, and the log2 fold change was inactive: -0.103.
In the case of TMEM50A (UniProt O95807), the log2 fold change is reported as inactive: 0.01.
With TMEM98 (UniProt Q9Y2Y6) the log2 fold change was inactive: -0.226.

The targets below were run with CC[C@H](C)N1C=C(C2=C(C=C(C=C21)C3=CN=C(C=C3)N4CCNCC4)C(=O)NCC5=C(C=C(NC5=O)C)C)C in the same assay as above.
In short: as §1
In the case of TMEM44 (UniProt Q2T9K0), the log2 fold change is reported as inactive: 0.192.
For TMEM219 (UniProt Q86XT9), the log2 fold change was inactive: 0.033.
For TMEM35B (UniProt Q8NCS4), the log2 fold change was inactive: -0.065.
With TMEM184C (UniProt Q9NVA4) the log2 fold change was inactive: 0.033.
TMEM79 (UniProt Q9BSE2) was tested, and the log2 fold change was inactive: -0.09.
With TNFAIP3 (UniProt P21580) the log2 fold change was inactive: 0.047.
TM7SF2 (UniProt O76062) was tested, and the log2 fold change was inactive: -0.022.
With TMEM184B (UniProt Q9Y519) the log2 fold change was inactive: -0.074.
In the case of TMEM129, the log2 fold change is reported as inactive: 0.074.
TMEM201 (UniProt Q5SNT2) was tested, and the log2 fold change was inactive: 0.061.
In the case of TM6SF1 (UniProt Q9BZW5), the log2 fold change is reported as inactive: -0.046.
In the case of TMEM59 (UniProt Q9BXS4), the log2 fold change is reported as inactive: -0.029.
TMEM106C (UniProt Q9BVX2) was tested, and the log2 fold change was inactive: 0.149.
For TMEM147 (UniProt Q9BVK8), the log2 fold change was inactive: -0.033.
In the case of TMCC2 (UniProt O75069), the log2 fold change is reported as inactive: 0.149.
TMEM273 isoform 2 (UniProt Q5T292) was tested, and the log2 fold change was inactive: -0.085.
TMEM127 (UniProt O75204) was tested, and the log2 fold change was inactive: -0.157.
TMEM50A (UniProt O95807) was tested, and the log2 fold change was inactive: -0.294.
In the case of TNFAIP2 (UniProt Q03169), the log2 fold change is reported as inactive: -0.485.
For TMEM120B (UniProt A0PK00), the log2 fold change was inactive: 0.202.
TMEM98 (UniProt Q9Y2Y6) was tested, and the log2 fold change was inactive: -0.128.
For TMEM159 isoform 2 (UniProt Q96B96), the log2 fold change was inactive: -0.318.
With TMCC3 (UniProt Q9ULS5) the log2 fold change was inactive: 0.004.
For TLR9 isoform 4 (UniProt Q9NR96), the log2 fold change was inactive: 0.048.
